Test results taken from publication PMC6896172, “Successful Targeting of the Warburg Effect in Prostate Cancer by Glucose-Conjugated 1,4-Naphthoquinones” (Cancers, 2019).
Further values from the same series stand in other lists.

Test system: 22Rv1 cells
Experiment: Global proteome analysis (LC-MS/MS, DIA) of differentially expressed proteins
Assay type: cell-based, human
Protocol: 22Rv1 cells were seeded in T75 culture bottles (4 × 10^6 cells/bottle in 20 mL/bottle), treated for 48 h with the 5 µM of compound 11 or vehicle (DMSO), harvested by scratching, washed twice with ice-cold PBS and flash-frozen. Cells were lysed and sonicated. The protein extracts were then heat-denaturated, reduced, alkylated and digested by trypsin. Peptides were chromatographically separated using full recovery autosampler vials and a nano-UPLC system (Acquity, Waters Corporation, Milford, MS, USA), coupled via electrospray ionization (ESI) to a tandem mass spectrometer equipped with a quadrupole and an orbitrap (QExactive, Thermo Fisher Scientific, Bremen, Germany), using MS/MS mode in data dependent acquisition (DDA) and data independent acquisition (DIA). The peptides, analyzed with DDA-LC-MS/MS, were identified with the search engine Sequest, integrated in the Proteome Discoverer software version 2.0 (Thermo Fischer Scientific) using the human Uniprot protein database (EMBL; Hinxton Cambridge, UK, release December 2018). […] For the details of sample preparation and proceeding, data acquisition and analysis see the Supplementary information. […]
serum (FBS, Invitrogen) and 1% penicillin/streptomycin (Invitrogen)). […]
Cell lines were lysed in 100 mM triethylammonium bicarbonate and 1% w/v sodium deoxycholate buffer followed by probe sonication to destroy polynucleotides and heat induce protein denaturing at 99 °C for 5 min. Protein concentrations were estimated with a bicinchonic acid (BCA) protein assay (Thermo Fisher Scientific, Bremen, Germany). 20 µg of protein were reduced in presence of 10 mM dithiotreithol (Sigma Aldrich) for 30 min at 60 °C followed by cysteine alkylation with 20 mM iodo acetamide (Sigma Aldrich) for 30 min at 37 °C in the dark and enzymatic degradation with sequencing grade trypsin (Promega) over night at 37 °C. Digestion was quenched with 1% formic acid (FA), precipitated sodium deoxycholate removed by centrifugation for 5 min at 14,000 g and the supernatant was dried in a vacuum centrifuge.
LC-MS/MS in Data Dependent and Data Independent Mode
Samples were resuspended in 0.1% FA and transferred into a full recovery autosampler vial (Waters). Chromatographic separation was achieved on a nano -UPLC system (Acquity, Waters Corporation, Milford, MS, USA) with a two-buffer-system (buffer A: 0.1% FA in water, buffer B:
0.1% FA in Acetonitrile (ACN), both at pH = 3). Attached to the UPLC was a reversed -phase peptide trapping column (Symmetry C18, 180 µm × 20 mm, 100 Å pore size, 5 µm particle size) for desalting, followed by a reversed-phase capillary separation of the tryptic peptides (BEH C18; 75 µm × 200 mm, 130 Å pore size, 1.7 µm particle size), using a 60 min gradient with increasing ACN concentration from 2–30% ACN. The eluting peptides were analyzed on a quadrupole-orbitrap mass spectrometer (QExactive, Thermo Fisher Scientific, Bremen, Germany) in data dependent acquisition (DDA) and data independent acquisition (DIA) for quantification.
In DDA mode, one replicate of each cell line was randomly chosen and 1 µg per sample was used per LC-MS/MS run to build a reference spectral library used for data extraction of samples acquired in DIA mode. For DDA, the 12 most intense ions per precursor scan (1 × 10 6 ions, 70,000 Resolution, 120 ms fill time) were analyzed by MS/MS (HCD at 25 normalized collision energy, 1 × 105 ions, 17,500 Resolution, 50 ms fill time) in a range of 400–1300 m/z. A dynamic precursor exclusion of 20 s was used. For DIA, 1 µg of each sample was analyzed using a 30 sequential 20 Da fixed window method covering the mass range from 400 –1000 m/z. Per cycle, 2 precursor scans (1 × […]
28 normalized collision energy, 1 × 106 ions, 17,500 Resolution, 50 ms fill time) were performed.
After the first precursor scan, 15 MS/MS scans were performed covering the precursor mass range from 400–700 m/z followed by the second precursor scan and another 15 MS/MS scans ranging from […]
LC-MS/MS Data Processing and Analysis […]

CC1(C)OC2OC(C(O)COC3=CC(=O)c4cccc(O)c4C3=O)C(O)C2O1 (stereo not drawn) [Compound 11]
Fold change (treated / control) (TOM34_HUMAN Q15785): 0.4323 | Fold change (treated / control) (TOP2A_HUMAN P11388): 0.2459 | Fold change (treated / control) (TOP2B_HUMAN Q02880): 0.7139 | Fold change (treated / control) (TPM3_HUMAN P06753): 1.217 | Fold change (treated / control) (TPM4_HUMAN P67936): 1.728 | Fold change (treated / control) (TPP2_HUMAN P29144): 1.469 | Fold change (treated / control) (TR112_HUMAN Q9UI30): 0.7955 | Fold change (treated / control) (TRA2A_HUMAN Q13595): 1.534 | Fold change (treated / control) (TRAP1_HUMAN Q12931): 0.8199 | Fold change (treated / control) (TRXR1_HUMAN Q16881): 3.369 | Fold change (treated / control) (TTL12_HUMAN Q14166): 1.248 | Fold change (treated / control) (TXND5_HUMAN Q8NBS9): 1.151 | Fold change (treated / control) (UB2L3_HUMAN P68036): 1.556 | Fold change (treated / control) (UBA3_HUMAN Q8TBC4): 1.35 | Fold change (treated / control) (UBA6_HUMAN A0AVT1): 2.181 | Fold change (treated / control) (UBE2K_HUMAN P61086): 1.33 | Fold change (treated / control) (UBE2T_HUMAN Q9NPD8): 0.4008 | Fold change (treated / control) (UBF1_HUMAN P17480): 0.7121 | Fold change (treated / control) (UCHL3_HUMAN P15374): 1.311 | Fold change (treated / control) (UCRI_HUMAN P47985): 0.5774 | Fold change (treated / control) (UGDH_HUMAN O60701): 2.13 | Fold change (treated / control) (UTP18_HUMAN Q9Y5J1): 0.63 | Fold change (treated / control) (VA0D1_HUMAN P61421): 1.1191 | Fold change (treated / control) (VAT1_HUMAN Q99536): 1.327 | Fold change (treated / control) (VATA_HUMAN P38606): 1.217 | Fold change (treated / control) (VATB2_HUMAN P21281): 1.249 | Fold change (treated / control) (VATE1_HUMAN P36543): 1.327 | Fold change (treated / control) (VATH_HUMAN Q9UI12): 1.255 | Fold change (treated / control) (VDAC2_HUMAN P45880): 1.2774 | Fold change (treated / control) (VGF_HUMAN O15240): 0.5125 | Fold change (treated / control) (VIGLN_HUMAN Q00341): 0.6343 | Fold change (treated / control) (VPS28_HUMAN Q9UK41): 1.5088 | Fold change (treated / control) (VTA1_HUMAN Q9NP79): 1.405 | Fold change (treated / control) (VTNC_HUMAN P04004): 3.078 | Fold change (treated / control) (WDR36_HUMAN Q8NI36): 0.8098 | Fold change (treated / control) (ZBT10_HUMAN Q96DT7): 0.5298 | Fold change (treated / control) (ZC11A_HUMAN O75152): 0.7642 | Fold change (treated / control) (ZN428_HUMAN Q96B54): 0.5792 | Fold change (treated / control) (ZYX_HUMAN Q15942): 2.4 | Fold change (treated / control) (protein ABCE1_HUMAN (P61221)): 0.5106 | Fold change (treated / control) (protein ABHDB_HUMAN (Q8NFV4)): 0.847 | Fold change (treated / control) (protein ACON_HUMAN (Q99798)): 0.6906 | Fold change (treated / control) (protein ADIRF_HUMAN (Q15847)): 0.7019 | Fold change (treated / control) (protein ADPPT_HUMAN (Q9NRN7)): 0.7187 | Fold change (treated / control) (protein ADT2_HUMAN (P05141)): 0.7729 | Fold change (treated / control) (protein AL1B1_HUMAN (P30837)): 0.713 | Fold change (treated / control) (protein AL4A1_HUMAN (P30038)): 0.7522 | Fold change (treated / control) (protein ANM1_HUMAN (Q99873)): 0.7068 | Fold change (treated / control) (protein AOFA_HUMAN (P21397)): 0.8558 | Fold change (treated / control) (protein AT5F1_HUMAN (P24539)): 0.4995 | Fold change (treated / control) (protein ATAD2_HUMAN (Q6PL18)): 0.5339 | Fold change (treated / control) (protein ATPA_HUMAN (P25705)): 0.8586 | Fold change (treated / control) (protein BAP31_HUMAN (P51572)): 0.7682 | Fold change (treated / control) (protein BZW2_HUMAN (Q9Y6E2)): 0.8405 | Fold change (treated / control) (protein C10_HUMAN (Q99622)): 0.6968 | Fold change (treated / control) (protein CAB45_HUMAN (Q9BRK5)): 0.5255 | Fold change (treated / control) (protein CADH1_HUMAN (P12830)): 0.7645 | Fold change (treated / control) (protein CBX3_HUMAN (Q13185)): 0.7648 | Fold change (treated / control) (protein CD44_HUMAN (P16070)): 0.8349 | Fold change (treated / control) (protein CD63_HUMAN (P08962)): 0.6871 | Fold change (treated / control) (protein CD166_HUMAN (Q13740)): 0.8191 | Fold change (treated / control) (protein CDK1_HUMAN (P06493)): 0.6978 | Fold change (treated / control) (protein CENPV_HUMAN (Q7Z7K6)): 0.8235 | Fold change (treated / control) (protein CGBP1_HUMAN (Q9UFW8)): 0.5472 | Fold change (treated / control) (protein CHPT1_HUMAN (Q8WUD6)): 0.4101 | Fold change (treated / control) (protein CHTOP_HUMAN (Q9Y3Y2)): 0.4309 | Fold change (treated / control) (protein CLCB_HUMAN (P09497)): 0.4273 | Fold change (treated / control) (protein CLPT1_HUMAN (O96005)): 0.5334 | Fold change (treated / control) (protein COA7_HUMAN (Q96BR5)): 0.6927 | Fold change (treated / control) (protein COX2_HUMAN (P00403)): 0.7931 | Fold change (treated / control) (protein COX17_HUMAN (Q14061)): 0.3991 | Fold change (treated / control) (protein COX41_HUMAN (P13073)): 0.7293 | Fold change (treated / control) (protein CPIN1_HUMAN (Q6FI81)): 0.457 | Fold change (treated / control) (protein CREL2_HUMAN (Q6UXH1)): 0.7362 | Fold change (treated / control) (protein CSDE1_HUMAN (O75534)): 0.3966 | Fold change (treated / control) (protein CTNB1_HUMAN (P35222)): 0.7244 | Fold change (treated / control) (protein CYB5_HUMAN (P00167)): 0.6962 | Fold change (treated / control) (protein CYTC_HUMAN (P01034)): 0.3985 | Fold change (treated / control) (protein DCAKD_HUMAN (Q8WVC6)): 0.4938 | Fold change (treated / control) (protein DCXR_HUMAN (Q7Z4W1)): 0.7586 | Fold change (treated / control) (protein DDB1_HUMAN (Q16531)): 0.7393 | Fold change (treated / control) (protein DDX5_HUMAN (P17844)): 0.5576 | Fold change (treated / control) (protein DDX27_HUMAN (Q96GQ7)): 0.7632 | Fold change (treated / control) (protein DDX54_HUMAN (Q8TDD1)): 0.4463 | Fold change (treated / control) (protein DDX56_HUMAN (Q9NY93)): 0.5433 | Fold change (treated / control) (protein DECR2_HUMAN (Q9NUI1)): 0.8098 | Fold change (treated / control) (protein DEK_HUMAN (P35659)): 0.84 | Fold change (treated / control) (protein DHX9_HUMAN (Q08211)): 0.8179 | Fold change (treated / control) (protein DIDO1_HUMAN (Q9BTC0)): 0.5009 | Fold change (treated / control) (protein DNJC7_HUMAN (Q99615)): 0.6825 | Fold change (treated / control) (protein DNLI1_HUMAN (P18858)): 0.4962 | Fold change (treated / control) (protein DNLI3_HUMAN (P49916)): 0.775 | Fold change (treated / control) (protein DNMT1_HUMAN (P26358)): 0.5164 | Fold change (treated / control) (protein DPM1_HUMAN (O60762)): 0.7251 | Fold change (treated / control) (protein DRS7B_HUMAN (Q6IAN0)): 0.7083 | Fold change (treated / control) (protein DSG2_HUMAN (Q14126)): 0.809 | Fold change (treated / control) (protein DSRAD_HUMAN (P55265)): 0.7783 | Fold change (treated / control) (protein DUT_HUMAN (P33316)): 0.4993 | Fold change (treated / control) (protein DX39B_HUMAN (Q13838)): 0.8243 | Fold change (treated / control) (protein EDN3_HUMAN (P14138)): 0.08248 | Fold change (treated / control) (protein EMC2_HUMAN (Q15006)): 0.823 | Fold change (treated / control) (protein ERO1A_HUMAN (Q96HE7)): 0.6751
